Measured values published in patent US20130323766A1.
Results are given in words; binding and its absence hold for the method and conditions named. Some results given as binding are weak or reduced against the parent protein; the word gives no strength.

Protein sequences, listed by entry. Tags and fused reporters are not part of them. Residues count along the entry.
UniProt P02701, residues 25-152: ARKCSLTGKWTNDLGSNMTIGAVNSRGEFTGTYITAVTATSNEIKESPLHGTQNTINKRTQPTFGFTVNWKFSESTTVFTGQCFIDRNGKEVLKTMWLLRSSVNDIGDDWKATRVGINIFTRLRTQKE

Assays:
[1] = target: T1, T. saccharolyticum transcarboxylase 1.3S subunit (or0947), biotinylated, expressed in E. coli strain M2557 (Thermoanaerobacterium saccharolyticum); assay: batch affinity capture of M2557 lysate on monomeric avidin resin, biotin elution, Western blot
T1 sequence (chain, biotinylated (biotin-containing enzyme; residue not stated)): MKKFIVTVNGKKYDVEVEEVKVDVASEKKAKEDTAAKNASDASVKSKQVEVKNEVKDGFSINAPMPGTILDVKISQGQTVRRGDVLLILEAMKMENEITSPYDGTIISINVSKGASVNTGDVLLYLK

[2] = target: T1, T. saccharolyticum transcarboxylase 1.3S subunit (or0947), biotinylated, expressed in E. coli strain M2557 (Thermoanaerobacterium saccharolyticum); assay: batch capture on streptavidin Dynabeads, elution by boiling, Western blot with streptavidin HRP, N-terminal sequencing of the band

Substance	binding [1]	binding [2]
Monomeric avidin resin (Pierce) (from UniProt P02701 25-152)	binds	–
Streptavidin (Streptavidin Dynabeads; streptavidin HRP) (from UniProt P22629 37-163)	–	binds
